Results are given in words; binding and its absence hold for the method and conditions named. In cells and extracts the contact can be indirect. Some results given as binding are weak or reduced against the parent protein; the word gives no strength.
Molecular target: cyclin B1 protein (UniProt P14635)
Test: co-IP; preliminary data, data not shown; no details of cells, bait or antibodies told

Chains of the proteins cited; added tags and fusions are not shown.
UniProt P14635: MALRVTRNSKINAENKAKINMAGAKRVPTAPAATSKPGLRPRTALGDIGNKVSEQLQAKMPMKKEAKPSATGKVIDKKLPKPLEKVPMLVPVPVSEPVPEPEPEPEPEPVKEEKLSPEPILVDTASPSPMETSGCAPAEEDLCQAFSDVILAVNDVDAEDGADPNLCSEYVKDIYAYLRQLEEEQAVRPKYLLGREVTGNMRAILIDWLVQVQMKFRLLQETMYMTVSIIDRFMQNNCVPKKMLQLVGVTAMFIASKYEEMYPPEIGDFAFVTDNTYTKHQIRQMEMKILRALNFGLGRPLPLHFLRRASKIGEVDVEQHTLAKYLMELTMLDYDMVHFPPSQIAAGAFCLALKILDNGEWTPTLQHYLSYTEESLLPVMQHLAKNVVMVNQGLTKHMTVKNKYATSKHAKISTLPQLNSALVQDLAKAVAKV
UniProt Q6ZVD7: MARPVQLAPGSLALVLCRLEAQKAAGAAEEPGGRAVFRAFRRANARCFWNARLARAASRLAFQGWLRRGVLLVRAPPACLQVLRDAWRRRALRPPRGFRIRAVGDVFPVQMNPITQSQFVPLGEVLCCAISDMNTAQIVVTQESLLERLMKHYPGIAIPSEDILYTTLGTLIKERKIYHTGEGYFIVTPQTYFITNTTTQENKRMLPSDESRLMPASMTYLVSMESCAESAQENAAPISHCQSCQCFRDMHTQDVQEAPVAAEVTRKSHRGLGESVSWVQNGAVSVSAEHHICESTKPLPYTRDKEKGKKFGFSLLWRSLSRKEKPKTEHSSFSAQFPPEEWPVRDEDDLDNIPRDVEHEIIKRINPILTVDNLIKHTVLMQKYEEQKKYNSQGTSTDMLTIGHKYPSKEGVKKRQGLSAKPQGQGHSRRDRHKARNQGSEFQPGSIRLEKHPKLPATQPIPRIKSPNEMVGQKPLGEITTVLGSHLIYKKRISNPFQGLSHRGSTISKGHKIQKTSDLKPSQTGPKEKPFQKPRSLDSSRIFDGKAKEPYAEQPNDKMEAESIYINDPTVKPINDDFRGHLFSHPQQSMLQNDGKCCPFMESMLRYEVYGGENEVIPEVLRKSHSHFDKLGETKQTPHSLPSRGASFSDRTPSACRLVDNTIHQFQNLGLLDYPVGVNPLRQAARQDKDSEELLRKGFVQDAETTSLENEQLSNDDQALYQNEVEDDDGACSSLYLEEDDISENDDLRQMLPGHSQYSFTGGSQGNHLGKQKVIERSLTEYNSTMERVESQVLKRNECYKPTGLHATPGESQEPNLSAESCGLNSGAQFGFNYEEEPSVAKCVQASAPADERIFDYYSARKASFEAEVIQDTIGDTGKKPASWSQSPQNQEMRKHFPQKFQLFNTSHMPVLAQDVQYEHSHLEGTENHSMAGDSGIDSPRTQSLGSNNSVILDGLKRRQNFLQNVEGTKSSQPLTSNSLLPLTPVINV

Substance: Storkhead box 1A (from UniProt Q6ZVD7 1-989)
- binding: binds

— publication PMC3258242
